Test results reported in PubChem BioAssay AID254 (DTP/NCI, 2004).
The list does not hold the whole screen: it is rich in T/C values a quarter to a half above the control, in often repeated tests (any T/C) and in doses without a T/C. Other doses and runs of a compound stand elsewhere. T/C: endpoint of the treated group in % of that of the vehicle group. Some doses have a count of surviving animals in place of a T/C: the source holds a T/C of zero for them, seemingly a mark for toxic or unscored doses. Some survivor counts are full or nearly so, which does not show that the dose was tolerated: the source hardly ever lists a survival T/C far under the control, and the zero likely stands for such cases as well. Survivors were counted at the toxicity check, usually on the fifth day, unless a day is given; later deaths do not show. Schedules are NCI's codes, taken here to give the interval after Q, in days (D) or hours (H), and the number of doses after X. Some entries were tested several times; the values are given in rising order. Where survival is the endpoint, this PubChem deposit counts one and a half times the control or more as active, and values a quarter to a half above the control carry no call in these data; other NCI protocols may use other cut-offs.

Test system: L1210 leukemia iv in BDF1 mice, survival T/C
Assay: NCI In Vivo Anticancer Drug Screen. Data for tumor model L1210 Leukemia (intravenous) in B6D2F1 (BDF1) mice
Details: T/C endpoint: mean survival time, higher T/C = longer survival
Experimental: The antitumor activity of compounds was measured in mice bearing transplantable tumors. Survival or tumor size were measured and the results are expressed as the measurement made in the treated group (T) divided by the measurement made in the vehicle treated control group (C). The tumor model used in this assay is L1210 Leukemia (intravenous) in B6D2F1 (BDF1) mice

SMILES: NC(=S)N/N=C/c1ccccn1
- T/C (dose: 5.0 mg/kg/injection, schedule: Q01DX008 (ip), vehicle: other): 145 % of control
- T/C (dose: 5.0 mg/kg/injection, schedule: Q06HX008 (ip), vehicle: other): 141 % of control
- T/C (dose: 5.0 mg/kg/injection, schedule: Q12HX008 (ip), vehicle: other): 148 % of control
- T/C (dose: 8.0 mg/kg/injection, schedule: Q01HX008 (ip), vehicle: other): 129 % of control

SMILES: O=NN(CCF)C(=O)NC1CCS(=O)(=O)CC1
- T/C (dose: 2.9 mg/kg/injection, schedule: Q01DX001 (ip), vehicle: other): 135 and 138 % of control
- survivor count (dose: 80.0 mg/kg/injection, schedule: Q01DX001 (oral), vehicle: other): 0 of 9 and 4 of 10

SMILES: O=c1[nH]c(=O)n(C2CC(O)C(CO)O2)cc1F (centres undefined)
- T/C (dose: 500.0 mg/kg/injection, schedule: Q01DX001 (ip), vehicle: saline): 138 % of control

SMILES: O=NN(CCCl)C(=O)NC1CS(=O)(=O)CS(=O)(=O)C1
- T/C (dose: 5.3 mg/kg/injection, schedule: Q04DX004 (ip), vehicle: saline with Tween-80, evaluated on day 3): 133 % of control
- T/C (dose: 5.3 mg/kg/injection, schedule: Q04DX004 (ip), vehicle: saline with Tween-80, evaluated on day 60): 133 % of control

SMILES: CN(Cc1cnc2nc(N)nc(N)c2n1)c1ccc(C(=O)N[C@@H](CCC(=O)O)C(=O)O)cc1
- T/C (dose: 110.0 mg/kg/injection, schedule: Q01DX001 (ip), vehicle: other): 146 % of control

SMILES: COc1cccc2c1C(=O)c1c(O)c3c(c(O)c1C2=O)C[C@@](O)(C(=O)CO)C[C@@H]3OC1CC(N)C(O)C(C)O1 (some centres undefined)
- survivor count (dose: 5.0 mg/kg/injection, schedule: Q01DX005 (iv), vehicle: saline): 8 of 8
- survivor count (dose: 6.0 mg/kg/injection, schedule: Q01DX005 (iv), vehicle: saline): 11 of 13 and 8 of 8
- survivor count (dose: 7.0 mg/kg/injection, schedule: Q01DX005 (iv), vehicle: saline): 7 of 8
- survivor count (dose: 8.0 mg/kg/injection, schedule: Q01DX005 (iv), vehicle: saline): 12 of 13

SMILES: CN(C)/N=N/c1nc[nH]c1C(N)=O
- T/C (dose: 165.0 mg/kg/injection, schedule: Q01DX001 (ip), vehicle: carboxymethylcellulose (CMC), evaluated on day 3): 99 and 103 % of control
- T/C (dose: 165.0 mg/kg/injection, schedule: Q01DX001 (ip), vehicle: carboxymethylcellulose (CMC), evaluated on day 60): 100 and 104 % of control
- T/C (dose: 270.0 mg/kg/injection, schedule: Q01DX001 (ip), vehicle: carboxymethylcellulose (CMC), evaluated on day 3): 125 % of control
- T/C (dose: 270.0 mg/kg/injection, schedule: Q01DX001 (ip), vehicle: carboxymethylcellulose (CMC), evaluated on day 60): 125 % of control
- T/C (dose: 337.0 mg/kg/injection, schedule: Q01DX001 (ip), vehicle: carboxymethylcellulose (CMC), evaluated on day 3): 116, 123, 125 % of control
- T/C (dose: 337.0 mg/kg/injection, schedule: Q01DX001 (ip), vehicle: carboxymethylcellulose (CMC), evaluated on day 60): 116, 124, 125 % of control
- T/C (dose: 400.0 mg/kg/injection, schedule: Q01DX001 (ip), vehicle: carboxymethylcellulose (CMC), evaluated on day 3): 147 % of control
- T/C (dose: 400.0 mg/kg/injection, schedule: Q01DX001 (ip), vehicle: carboxymethylcellulose (CMC), evaluated on day 60): 147 % of control
- T/C (dose: 506.0 mg/kg/injection, schedule: Q01DX001 (ip), vehicle: carboxymethylcellulose (CMC), evaluated on day 3): 123, 137, 142 % of control
- T/C (dose: 506.0 mg/kg/injection, schedule: Q01DX001 (ip), vehicle: carboxymethylcellulose (CMC), evaluated on day 60): 123, 138, 142 % of control
- T/C (dose: 675.0 mg/kg/injection, schedule: Q01DX001 (ip), vehicle: carboxymethylcellulose (CMC), evaluated on day 3): 122, 147, 174 % of control
- T/C (dose: 675.0 mg/kg/injection, schedule: Q01DX001 (ip), vehicle: carboxymethylcellulose (CMC), evaluated on day 60): 122, 148, 174 % of control
- T/C (dose: 844.0 mg/kg/injection, schedule: Q01DX001 (ip), vehicle: carboxymethylcellulose (CMC), evaluated on day 3): 163, 167, 175 % of control
- T/C (dose: 844.0 mg/kg/injection, schedule: Q01DX001 (ip), vehicle: carboxymethylcellulose (CMC), evaluated on day 60): 164, 167, 175 % of control
- survivor count (dose: 1350.0 mg/kg/injection, schedule: Q01DX001 (ip), vehicle: carboxymethylcellulose (CMC)): 5 of 10
